Patent publication US11590202B2, “Inhibitors of LTβR-NFκB signaling pathways for treating inflammation and cancer” (University of Maryland, Baltimore, priority 2017, dated 2023)
Entries after “also recorded” stand apart in the source; their conditions may differ. At least one peptide structure holds a part that was inferred or is arguable (an end, a ring closure or a residue). No end group written: not given here.

Key:
[1] = system: LTβR complex (TRAF2, TRAF3); assay: Co-immunoprecipitation of LTβR complex with anti-LTβR; type: cell-based, mouse; conditions: LEC pretreated, then anti-LTβR mAb for 10 minutes
Procedure: (§1) LECs were lysed in buffer containing 20 mM HEPES (pH 7.4), 150 mM NaCl, 10 mM NaF, 2 mM Na3VO4, 1 mM EDTA, 1 mM EGTA, 0.5% Triton X-100, 0.1 mM DTT, 1 mM PMSF and protease inhibitor cocktail (Roche, Indianapolis, Ind.). Protein in the cell extract was quantified using protein quantification kit (Bio-Rad, Philadelphia, Pa.) and 10 μg total protein was run on Novex™ WedgeWell™ 4-20% Tris-Glycine Mini Gels (Invitrogen) and transferred to an Immobilon-P membrane (Bio-Rad). Membranes were probed with anti-NF-κB2 p100/p52, NIK, phospho-IKKα/β(Ser176/180) (16A6), IκBα, TRAF2, TRAF3, and GAPDH antibodies. For co-IP assays, 500 μg total protein of cell extract was incubated with 1 μg of anti-mLTβR (5G11b) overnight, followed by 4 hour incubation with 25 μL protein G Agarose beads (Sigma-Aldrich). The beads were then washed with lysis buffer and boiled in 2× Laemmli sample buffer (Bio-Rad).

[2] = system: mouse sarcoma cell line KPI30; assay: Cancer cell in vitro migration assay, mouse sarcoma; type: cell-based; conditions: 20 μM peptide; overnight
[3] = system: LTβR-NIK signaling in LEC and SVEC4-10; assay: Immunohistochemistry of LTβR, NIK and RelB in LEC and SVEC4-10; type: cell-based, mouse; conditions: anti-LTβR for 6 hours
Procedure: (§2) LEC monolayers were stained for surface VCAM-1, LTβR or Lyve-1 with rat anti-mouse VCAM-1 (Clone 429, eBioscience), rat anti-mouse LTβR (Clone 3C8, eBioscience) or rabbit anti-mouse Lyve-1 (70R-LR003, Fitzgerald, Acton, Mass.), then were fixed for 20 minutes at 4° C. with 4% (w/v) paraformaldehyde (Affymetrix), permeabilized with PBS 0.2% (v/v) Triton X-100 (Sigma-Aldrich), and treated with 2% donkey serum for 10 minutes then incubated with rabbit anti-mouse CXCL12 (eBioscience), goat-anti-mouse CCL21 (Clone AF457, R&D System), or anti-NIK mouse monoclonal antibody (Clone A-12, Santa Cruz Biotechnology) overnight at 4° C. The primary antibodies were detected with Alexa Fluor […], 647 (Cy5), or 546 (Cy3)-conjugated donkey anti-goat, donkey anti-rabbit, or donkey anti-rat secondary antibodies (Jackson ImmunoResearch, West Grove, Pa.) for 1 hour at 4° C. Transwell membranes were transferred onto glass slides and visualized by fluorescent microscopy (Zeiss LSM 510 Meta, and LSMS Duo) with a ×60 or ×20 objective. Images were analyzed with Volocity version 6.3 software.

LEC [4] = assay: Time-lapse microscopy of CD4 T cell motility on LEC; type: cell-based, mouse; conditions: vs control peptide treated LEC
LEC [5] = assay: T cell-LEC binding assay; type: cell-based, mouse
[6] = system: contact hypersensitivity (CHS) response; assay: Contact hypersensitivity (DNFB); type: in vivo, mouse
[7] = system: CCL21 on Lyve-1+ lymphatic vessels; assay: Whole mount staining of ear pinnae for CCL21 and Lyve-1; type: in vivo; conditions: C57BL/6 mice, 0.1 nM/ear in 10 μL; after 3 hours
[8] = system: LTβR-mediated non-classical NFκB (NIK) signaling in LEC and SVEC4-10; assay: Immunoblot of non-classical NFκB (NIK) signaling after LTβR activation; type: cell-based, mouse
Procedure: as §1

[9] = system: TNFR1-mediated VCAM-1 expression in LEC; assay: TNFα-stimulated VCAM-1 expression in LEC (qRT-PCR); type: cell-based, mouse
Procedure: (§3) One μg of total RNA extracted using Trizol reagent (Invitrogen) was reverse-transcribed into cDNA with GoScript™ Reverse Transcription System (Promega, Fitchburg, Wis.). mRNA expression levels were quantified by real-time PCR using SYBR Green Master Mix with an ABI Prism 7900HT (Applied Biosystems, Foster City, Calif.). Values for specific gene expression were normalized to house-keeping HPRT gene expression and were calculated as: 2^(Ct of HPRT-Ct specific gene). For the microarrays, total RNA of treated mLECs was extracted with RNeasy mini kit (Qiagen, Germantown, Md.) and analyzed for purity and integrity by capillary electrophoresis on an Agilent Bioanalyzer 2100 (Agilent Technologies, Inc. Santa Clara, Calif.). 100 ng/sample was subjected to amplification, followed by labeling and hybridization to Mouse Genome 430 2.0 GeneChips (Affymetrix, Santa Clara, Calif.). Sample amplification, labeling, hybridization, and detection were performed according to the manufacturer's protocols.

LEC [10] = assay: T cell transendothelial migration across LEC toward CCL19; type: cell-based, mouse; conditions: toward CCL19 for 3 hours
[11] = system: LTαβ-LTβR NIK pathway in LEC; assay: Immunoblot of NIK activation in LEC co-cultured with iTreg; type: cell-based, mouse; conditions: IL-2-activated iTreg
[12] = system: LTβR-induced chemokines and cell adhesion molecules in LEC and SVEC4-10; assay: LTβR-induced chemokine and adhesion molecule expression (qRT-PCR, ELISA, flow cytometry, immunohistochemistry); type: cell-based, mouse
Procedure: LECs in PBS containing 0.2 mM calcium, 0.1 mM magnesium and 0.5% w/v BSA were treated with anti-CD16/32 (clone 93, eBioscience) to block Fc receptors, and then stained with antibodies to cell surface molecules in the same buffer. Flow cytometry antibodies used were: APC-eflour780-anti-mouse CD4 (GK1.5, eBioscience); PE-anti-mouse CD25 (PC61.5, eBioscience); APC-anti-mouse VCAM-1 (clone 647, eBioscience). For detection of LTα2β1, T cells were incubated with MOPC21 or LTβRIg at 2 μg/mL for 60 minutes at 37° C. in HBSS with 2% FBS. Cells were washed, and then stained for 45 minutes at 4° C. with BV421-rat anti-mouse IgG1 along with antibodies to other cell surface markers. Cells were then washed and fixed with 4% paraformaldehyde and run on an LSR Fortessa flow cytometer (BD Biosciences, San Jose, Calif.). Results were analyzed with software FlowJo 8.7 (Treestar).
as §3
5×10^5 LECs or SVEC4-10 cells were plated in 12-well plates and treated with 20 μM peptides for 30 minutes at 37° C. Cells were then washed and incubated with anti-LTβR agonistic mAb (2 μg/mL) for 30 minutes at 4° C., followed by washing and then cross-linking with anti-rat IgG (2 μg/mL) for 6 or 16 hours at 37° C. The supernatants were collected and stored in −80° C. Mouse CCL2 and CCL21 were measured with ELISA kits from Biolegend, Inc. and R&D Systems (Minneapolis, Minn.), respectively.
as §2

[13] = system: CD4 T cell entry into lymphatic vessels; assay: Whole-mount ear pinna migration assay; type: in vivo, mouse; conditions: ear pinna injection
[14] = system: DC migration from skin to dLN; assay: In vivo DC migration assay (FITC painting); set-up: species or system mouse; conditions: i.d. peptide to shaved abdomen, 16 hours
LEC [15] = assay: In vitro DC migration to CCL21 through LEC; type: cell-based, mouse; conditions: to CCL21 through peptide-treated LEC
[16] = system: naïve CD4 T cell migration to draining LN; assay: Footpad-popliteal LN migration assay; type: in vivo, mouse
[17] = system: mouse breast cancer cell lines 410 and 410.4; assay: Cancer cell in vitro migration assay, mouse breast cancer; type: cell-based; conditions: 20 μM peptide; overnight
[18] = system: LEC stimulated with anti-LTβR plus cross-linking; assay: Transcriptional profiling with Affymetrix gene array; type: cell-based, mouse; conditions: 4 hours
[19] = system: SVEC4-10 activated with anti-LTβR mAb; assay: Peptide dose finding by cytokine responses; type: cell-based, mouse; conditions: various doses
LEC [20] = assay: Evans Blue endothelial permeability assay; type: cell-based, mouse
[21] = system: integrins α6β4 on primary LEC; assay: Integrin surface expression and distribution on LEC (flow cytometry, immunohistochemistry); type: cell-based, mouse
LEC [22] = assay: LEC attachment to culture surfaces; type: cell-based, mouse; conditions: resting and LTβR-stimulated LEC; vs untreated, control peptide or ciLT-treated
[23] = system: human breast cancer cell line MDA-MB-231; assay: Cancer cell in vitro migration assay, human breast cancer; type: cell-based; conditions: 20 μM peptide; overnight
[24] = pretreated with peptides or inhibitors, then anti-LTβR for 6 hours
[25] = LEC or SVEC4-10, anti-LTβR mAb plus CL, peptides 20 μM

## RQIKIWFQNRRMKWKKTGNIYIYNGPVL [nciLT]
[1]
  TRAF2 recruitment to the LTβR complex: but not TRAF2
  TRAF3 recruitment to the LTβR complex: blocked
[2]
  KPI30 migration toward CXCL10 across iMS (blood endothelial cell line): inhibited
  KPI30 migration toward CXCL10 across iSVEC: inhibited
[3]; SVEC4-10
  LTβR expression: without affecting
  NIK expression and co-localization with LTβR: inhibited
[3]; mLEC
  LTβR-induced RelB nuclear translocation: suppressed
LEC [4]
  CD4 T cell motility on treated LEC: significantly lower motility
LEC [5]
  binding of CD4 T cells to treated LEC: increased binding
[6]; 20 nmol i.d. abdomen day 0, 30 minutes before sensitization, 24 hours after challenge
  CHS (ear swelling), peptide at sensitization: inhibited CHS
[6]; 20 nmol in ear pinna, day 5
  CHS, peptide at challenge (elicitation): inhibited CHS
[6]; day 0, compared with controls
  T cell and DC infiltration of the ear, peptide at sensitization: fewer T cells and DC infiltrating the ear
[6]; day 7
  inflammatory infiltrate in the ear, peptide at start of resolution stage: enhanced T cell and DC infiltration
[6]; day 7, 48 hours after challenge
  CHS, peptide at start of resolution stage: sustained CHS
[6]; ear pinna, day 5
  T cell infiltration, peptide at challenge (elicitation): reduced T cell infiltration
[7]
  expression of CCL21 on Lyve-1+ lymphatic vessels in vivo: significantly decreased
[8]; LTβR-activated LEC
  NIK accumulation: did prevent NIK accumulation
[8]; [24]
  TRAF2 degradation: did not prevent TRAF2 degradation
  p100 processing to p52: prevented
[9]
  TNFR1-mediated NFκB signaling: unaltered
LEC [10]; LEC pretreated with 20 μM peptide for 30 minutes
  Treg TEM across LEC: prevented
LEC [10]; LEC pretreated with 20 μM peptide
  TEM of activated and naïve CD4+ non-Treg T cells across LEC: inhibited
[11]
  NIK expression in LEC co-cultured with iTreg: decreased NIK expression
  iTreg-induced p100 processing to p52 in LEC: inhibition of p100 processing to p52
[12]; LEC
  β-catenin expression: suppressing
[12]; LEC or SVEC4-10, anti-LTβR mAb (plus CL), peptides 20 μM, NIKi 50 μM, BAY11 25 μM
  LTβR-induced CCL2 expression/production: enhanced
[12]; [25]
  LTβR-induced CCL21 transcription and production: specifically inhibited
  LTβR-induced CXCL12 expression: specifically inhibited
  LTβR-induced VCAM-1 expression: enhanced; also recorded: significant increase
[12]; LEC, anti-LTβR mAb plus CL, peptides 20 μM
  LTβR-induced CCL19 expression: inhibited
[13]
  CD4 T cells entering into the lymphatic vessels: inhibited
[14]
  DC migration from skin to dLN in vivo: inhibited DC migration
LEC [15]
  DC TEM in vitro: inhibited
[16]; footpad, with anti-LTβR mAb
  anti-LTβR mAb-enhanced migration to draining LN: blocked
[16]; peptide injected into the footpad
  naïve CD4 T cell homing into local draining LNs: inhibited
[17]
  cell line 410 migration toward SIP across iSVEC: inhibited
  cell line 410.4 migration toward SIP across iSVEC: inhibited
[18]
  significant changes in transcripts, anti-LTβR mAb+nciLT vs. anti-LTβR: 362
  significant changes in transcripts, anti-LTβR mAb+nciLT vs. anti-LTβR mAb+ciLT: 116
[18]; out of 34,473 transcripts
  significant changes in transcripts, anti-LTβR mAb+nciLT vs. medium: 468 transcripts
[19]
  peptide dose giving optimal results: 20 µM
LEC [20]
  LEC permeability (Evans Blue barrier assay): did not affect
[21]; LEC pretreated with nciLT, co-culture with naïve CD4 T cells
  co-localization of integrin α6 expressing T cells with β4 expressing LEC: markedly more co-localization
[21]; primary LEC, nciLT 20 μM
  expression of integrins α6β4: did not alter
LEC [22]
  attachment of the LEC to the culture surfaces: markedly increased firm attachment
[23]
  MDA-MB-231 (parent cell line) migration toward SIP across human iLEC: inhibited migration
  MDA-MB-231 clone 6 migration toward SIP across human iLEC: inhibited
  MDA-MB-231 clone 308 migration toward SIP across human iLEC: inhibited
